From PubChem BioAssay AID540276 (National Center for Advancing Translational Sciences (NCATS), 2011)
Hit rate of the full screen: of about 300,000 compounds, about 5,400 (1.8%) were called active. The inconclusive results got no clear call from the source; some entries with a clear call stand among them for comparison. Calls come from the whole dose curve; tested in HEK293 cells. Potencies beside an inconclusive call are fits to weak or partial responses and may not hold up.

test: qHTS for inhibitors of binding or entry into cells for Marburg Virus; conditions: Marburg virus pseudotyped entry inhibition, cell reporter; series mostly up to 37.8 µM
Potency is the fitted concentration of half-maximal effect.

SMILES	Potency
Cc1nn(-c2ccccc2)c(Cl)c1C1C(C#N)=C(N)OC2=C1C(=O)CC(C)(C)C2 (centres undefined)	inconclusive: 2 µM [inhibitor, full curve, poor fit]
Cc1ccc(Cl)cc1NC(=O)C(NS(=O)(=O)c1cccc2nsnc12)c1ccccc1 (centres undefined)	inactive
Cc1ccccc1C(=O)NC1CC2CCC(C1)N2Cc1ccccc1 (centres undefined)	inconclusive: 22.4 µM [inhibitor, partial curve, poor fit]
CCCC(=O)C1=C(O)C(C(=O)OC)C(C)(C)CC1=Nc1ccc(OC)cc1 (centres undefined)	inconclusive: 15.8 µM [inhibitor, single point]
Cc1ccc(S(=O)(=O)c2nc(NCCN(C)C)sc2Cl)cc1	inconclusive: 20.6 µM [inhibitor, partial curve, poor fit]
O=C(Nc1cccc(S(=O)(=O)N2CCCCC2)c1)C1CCCN1S(=O)(=O)c1ccccc1F (centres undefined)	inconclusive: 8.91 µM [inhibitor, partial curve]
CCC/C(=N/Nc1ccc(Cl)cc1)c1cnnc(-c2ccccc2)n1	inconclusive: 0.461 µM [inhibitor, partial curve, poor fit]
COc1cc(/C=N/NC(=O)c2ccccn2)cc2c1OCO2	inactive
CCOc1ccccc1N(CC(=O)NC1CCCCC1)S(=O)(=O)c1ccccc1	inconclusive: 35.5 µM [inhibitor, single point]
CCn1ncc(C2C(C(=O)Nc3ccc(C)cn3)=C(C)NC3=C2C(=O)CCC3)c1C (centres undefined)	inconclusive: 3.16 µM [inhibitor, partial curve, poor fit]
COc1ccc(NC2CC(=O)N(c3cccc(C)c3)C2=O)cc1 (centres undefined)	inactive
C=CC[C@@H]1Cc2c(Br)ccc(Br)c2[C@@H](CC=C)N1	inactive
Cc1cc(=O)oc(C)c1C(=O)Nc1ccccc1F	inactive
COc1ccc2nc(NC(=O)c3nc(S(=O)(=O)Cc4ccccc4F)ncc3Cl)sc2c1	inconclusive: 10 µM [inhibitor, single point]
COc1ccc(C2C(C(=O)c3ccccc3)N3c4ccccc4C=CC3C2[N+](=O)[O-])cc1 (centres undefined)	inactive
COc1ccc(NC(=O)c2ccc(=O)[nH]c2)cc1S(=O)(=O)N1CCCCC1	inactive
Nc1nonc1C(=O)N/N=C/c1ccncc1	inactive
COc1cc(SC)ccc1C(=O)NNC(=O)c1cc(C)oc1C	inconclusive: 8.91 µM [inhibitor, partial curve, poor fit]
Cc1ccc(C(=O)N2CCCC2)cc1S(=O)(=O)Nc1cccc(C)c1C	inactive
COC(=O)c1cnc(SC)nc1C	inactive
CC1(C)CC2CC(C)(CN2S(=O)(=O)c2ccc(C(=O)Nc3cc(S(=O)(=O)N4CCOCC4)ccc3Cl)cc2)C1 (centres undefined)	inconclusive: 3.16 µM [inhibitor, full curve, poor fit]
COCCn1nnnc1C(C(C)C)N(Cc1ccccc1)Cc1cc2cc(OC)ccc2[nH]c1=O (centres undefined)	inactive
CCOC(=O)N/N=C\c1cccc(OC)c1OC/C=C/c1ccccc1	inconclusive: 1.26 µM [inhibitor, partial curve, poor fit]

Some of the entries so far, field by field.
Cc1nn(-c2ccccc2)c(Cl)c1C1C(C#N)=C(N)OC2=C1C(=O)CC(C)(C)C2 (centres undefined)
  Potency: inconclusive: 2 µM [inhibitor, full curve, poor fit]
Cc1ccc(S(=O)(=O)c2nc(NCCN(C)C)sc2Cl)cc1
  Potency: inconclusive: 20.6 µM [inhibitor, partial curve, poor fit]
CCn1ncc(C2C(C(=O)Nc3ccc(C)cn3)=C(C)NC3=C2C(=O)CCC3)c1C (centres undefined)
  Potency: inconclusive: 3.16 µM [inhibitor, partial curve, poor fit]
COCCn1nnnc1C(C(C)C)N(Cc1ccccc1)Cc1cc2cc(OC)ccc2[nH]c1=O (centres undefined)
  Potency: inactive

Continued.

SMILES	Potency
O=C(CCNc1ccc(Cl)cc1)c1cccs1	inconclusive: 0.355 µM [activator, full curve, poor fit]
Cc1ccsc1/C=N/NC(=O)c1ccncc1	inactive
O=C(CCN1CC1)OCCOC(=O)CCN1CC1	inconclusive: 35.5 µM [inhibitor, single point]
CCN(c1ccc(NC(=O)COC(=O)c2ccc(C)s2)cc1)C(C)C	inactive
CCOC(=O)c1sc(-c2ccccc2)cc1NC(=O)CSc1nnnn1C	inconclusive: 25.1 µM [inhibitor, single point]
Cc1cc2oc(=O)cc(CN3CCN(S(=O)(=O)/C=C/c4ccccc4)CC3)c2cc1C	inactive
Cc1cc(CNC(=O)c2ccc(C)c([N+](=O)[O-])c2)c2ccccc2n1	inconclusive: 5.01 µM [inhibitor, single point]
Cc1cccc(N2CCN(S(=O)(=O)c3c(C)[nH]c(C)c3C(=O)N3CCCCC3)CC2)c1C	inconclusive: 35.5 µM [inhibitor, single point]
CCOC(=O)C1=C(C)NC(C)=C(C(=O)OCC)C1C(=O)OCC(=O)NC1(C#N)CCCCC1	inconclusive: 35.5 µM [inhibitor, single point]
Cc1c(Br)c(=O)[nH]c(=O)n1COCc1ccccc1	inconclusive: 6.31 µM [inhibitor, single point]
COc1ccc(N2CCN(C(c3cc4ccc(C)cc4[nH]c3=O)c3nnnn3C3CCCC3)CC2)cc1 (centres undefined)	inconclusive: 23.1 µM [inhibitor, single point]
C/C(CCS(=O)(=O)c1ccccc1)=N/O	inactive
CCN(CC)C(=O)c1ccc(NC(=O)CN2CCc3cc(OC)c(OC)cc3C2)cc1	inconclusive: 1.12 µM [inhibitor, full curve]
CN(C)c1cccc(C(=O)NCC(c2ccco2)N(C)C)c1 (centres undefined)	inconclusive: 0.562 µM [activator, full curve, poor fit]
O=C(c1cc2cc(Cl)ccc2o1)N1CCCCCC1	inconclusive: 0.631 µM [activator, full curve, poor fit]
O=C(c1cnn2c1NC(c1ccco1)CC2C(F)(F)F)N1CCN(c2cccc(Cl)c2)CC1 (centres undefined)	inconclusive: 15.8 µM [inhibitor, single point]
COc1cc(/C=C/c2cccc[n+]2C)ccc1OCC(=O)Nc1ccccc1C	inactive
Cc1cc(OCCOCCNC(C)C)cc(C)c1Cl	inconclusive: 35.5 µM [inhibitor, single point]
O=C1C2CC=C(Cl)CC2C(=O)N1CCC[n+]1cccc2ccccc21 (centres undefined)	inconclusive: 1.3 µM [inhibitor, partial curve, poor fit]
CC(C)C(=O)NCc1cc(-c2ccccc2)no1	inactive
COc1ccc(OC)c(/C=C/C(=O)N2C(=O)c3cccc(N)c3C2=O)c1	inconclusive: 22.4 µM [inhibitor, partial curve, poor fit]
CCCc1[nH]nc2c1C1(C(=O)N(Cc3ccccc3)c3ccccc31)C(C(=O)OC)=C(N)O2 (centres undefined)	inconclusive: 29.1 µM [inhibitor, single point]
Cc1cc2nc(N3CCN(C(=O)c4ccco4)CC3)sc2cc1C	inconclusive: 1 µM [activator, full curve, poor fit]

SMILES	Potency
COC(=O)N/N=C/c1c(C)c(C(=O)c2ccc(F)cc2)n2ccccc12	inconclusive: 35.5 µM [inhibitor, single point]
Cc1ccccc1C(=O)NC(=S)NCCN1CCOCC1	inconclusive: 1.41 µM [inhibitor, partial curve]
O=C(CSc1ccc([N+](=O)[O-])cc1)c1ccccc1	inconclusive: 10 µM [activator, partial curve, poor fit]
Cn1cc(C(=O)N/N=C/C2=C(N3CCOCC3)C(=C\c3ccccc3)/CC2)ccc1=O	inconclusive: 2.51 µM [inhibitor, partial curve, poor fit]
COC(=O)c1ccccc1NC(=S)NC(=O)COc1ccc(C(C)C)cc1	inconclusive: 3.55 µM [inhibitor, single point]
O=C(Nc1cccc(Cn2cccn2)c1)c1cc2c(s1)CCCC2	inconclusive: 18.3 µM [inhibitor, single point]
CCOC(=O)c1ccc(NC(=O)c2cc3c(C)nn(-c4ccccc4Cl)c3s2)s1	inactive
O=[N+]([O-])c1cc2no[n+]([O-])c2cc1N1CCCCC1	inactive
CCOc1ccc(N(Cc2ccccc2)C(=O)c2nc(SCC)ncc2Cl)cc1	inconclusive: 22.4 µM [inhibitor, single point]
Cc1cccc(NC(=O)CSc2nc3ccccc3nc2N2CCC(C)CC2)c1	active: 1.12 µM
COc1cc(OC)c2c(N)c(C#N)c(C(F)(F)C(F)(F)F)nc2c1	inactive
O=c1cccccc1NN=C1CCCCC1	inconclusive: 4.47 µM [activator, full curve, poor fit]
COc1ccc(/C(C)=N/NC(=O)c2nnn(-c3nonc3N)c2-c2cccs2)cc1	inactive
CC1=C(c2ccc(C(C)C)cc2)S(=O)(=O)NC1=NCc1ccccc1C	inactive
CCCCCCn1c2c(c(=N)c3c1CCC3)CCC2	active: 8.2 µM
CCN(CC(O)Cn1c2ccccc2c2ccccc21)S(=O)(=O)c1ccc(F)cc1 (centres undefined)	inconclusive: 29.1 µM [inhibitor, single point]
O=C(COc1ccc(Cl)cc1Cl)NCCC1=CCCCC1	inconclusive: 35.5 µM [inhibitor, single point]
COc1cc2c(cc1OC)C1O[C@](CCCCN3C(=O)c4ccccc4C3=O)(C2)Oc2c1c(=O)oc1ccc(F)cc21	inactive
Cc1ccccc1CSc1nnc(-c2cccnc2)n1N	inconclusive: 11.2 µM [activator, partial curve, poor fit]
O=C(O)c1cc(S(=O)(=O)N2CCOCC2)ccc1N1CCOCC1	inactive
COc1ccc(/C=N/NC(=O)Cc2csc(Nc3cccc(C(F)(F)F)c3)n2)cc1C	inconclusive: 2.82 µM [inhibitor, partial curve, poor fit]
CN(Cc1ccccc1)C(=S)NC(=O)c1ccccc1	inconclusive: 35.5 µM [inhibitor, single point]
